Source: article PMC12309053
Results are given in words; binding and its absence hold for the method and conditions named. Binding seen in cells or lysates may run through a third protein. A yes stands for co-enrichment or nearness to the bait. Other partners may have been found. Where a sequence is shown, tags or fusion partners need not be part of it.

T1: SRSF7-GFP fusion product (Serine/arginine-rich splicing factor 7, GFP-tagged at the C-terminus, from a BAC) (human) (UniProt Q16629)
T1 sequence: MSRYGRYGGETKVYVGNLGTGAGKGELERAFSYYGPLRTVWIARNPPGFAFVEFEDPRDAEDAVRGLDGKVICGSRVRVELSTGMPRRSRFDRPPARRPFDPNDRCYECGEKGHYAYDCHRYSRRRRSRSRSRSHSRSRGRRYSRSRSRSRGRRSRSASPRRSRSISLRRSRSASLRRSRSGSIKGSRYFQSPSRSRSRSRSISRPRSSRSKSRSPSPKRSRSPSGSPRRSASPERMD

T2: SRSF7-GFP fusion product (Serine/arginine-rich splicing factor 7, GFP-tagged at the C-terminus, from a BAC) (human), Q16629
T2 chain: T1 sequence

B1: SRSF2 (protein, UniProt Q01130 1-221)
chain: MSYGRPPPDVEGMTSLKVDNLTYRTSPDTLRRVFEKYGRVGDVYIPRDRYTKESRGFAFVRFHDKRDAEDAMDAMDGAVLDGRELRVQMARYGRPPDSHHSRRGPPPRRYGGGGYGRRSRSPRRRRRSRSRSRSRSRSRSRSRYSRSKSRSRTRSRSRSTSKSRSARRSKSKSSSVSRSRSRSRSRSRSRSPPPVSKRESKSRSRSKSPPKSPEEEGAVSS
B2: phosphorylated SRSF11 (protein, UniProt Q05519 1-484)
chain: MSNTTVVPSTAGPGPSGGPGGGGGGGGGGGGTEVIQVTNVSPSASSEQMRTLFGFLGKIDELRLFPPDDSPLPVSSRVCFVKFHDPDSAVVAQHLTNTVFVDRALIVVPYAEGVIPDEAKALSLLAPANAVAGLLPGGGLLPTPNPLTQIGAVPLAALGAPTLDPALAALGLPGANLNSQSLAADQLLKLMSTVDPKLNHVAAGLVSPSLKSDTSSKEIEEAMKRVREAQSLISAAIEPDKKEEKRRHSRSRSRSRRRRTPSSSRHRRSRSRSRRRSHSKSRSRRRSKSPRRRRSHSRERGRRSRSTSKTRDKKKEDKEKKRSKTPPKSYSTARRSRSASRERRRRRSRSGTRSPKKPRSPKRKLSRSPSPRRHKKEKKKDKDKERSRDERERSTSKKKKSKDKEKDRERKSESDKDVKQVTRDYDEEEQGYDSEKEKKEEKKPIETGSPKTKECSVEKGTGDSLRESKVNGDDHHEEDMDMSD
modifications: phosphorylated
B3: CRNKL1 (protein, UniProt Q9BZJ0 1-848)
chain: MTATVENLTFQKDTLGNAVDKNTSRLELRSYSLAGRHGSTEPLVLAWSSQFRRLTWGCALDALHRSPCVAASQHGVTHLIRSSRTPHSTRCRKEDAQPGHHGNGAASVTAQARGQRSVLQVPLPVPRSCLFSESFVVSVSSQSRFLASVPGTGVQRSTAADMAASTAAGKQRIPKVAKVKNKAPAEVQITAEQLLREAKERELELLPPPPQQKITDEEELNDYKLRKRKTFEDNIRKNRTVISNWIKYAQWEESLKEIQRARSIYERALDVDYRNITLWLKYAEMEMKNRQVNHARNIWDRAITTLPRVNQFWYKYTYMEEMLGNVAGARQVFERWMEWQPEEQAWHSYINFELRYKEVDRARTIYERFVLVHPDVKNWIKYARFEEKHAYFAHARKVYERAVEFFGDEHMDEHLYVAFAKFEENQKEFERVRVIYKYALDRISKQDAQELFKNYTIFEKKFGDRRGIEDIIVSKRRFQYEEEVKANPHNYDAWFDYLRLVESDAEAEAVREVYERAIANVPPIQEKRHWKRYIYLWINYALYEELEAKDPERTRQVYQASLELIPHKKFTFAKMWILYAQFEIRQKNLSLARRALGTSIGKCPKNKLFKVYIELELQLREFDRCRKLYEKFLEFGPENCTSWIKFAELETILGDIDRARAIYELAISQPRLDMPEVLWKSYIDFEIEQEETERTRNLYRRLLQRTQHVKVWISFAQFELSSGKEGSLTKCRQIYEEANKTMRNCEEKEERLMLLESWRSFEEEFGTASDKERVDKLMPEKVKKRRKVQTDDGSDAGWEEYFDYIFPEDAANQPNLKLLAMAKLWKKQQQEKEDAEHHPDEDVDESES
B4: SRRM1 (protein, UniProt Q8IYB3 1-904)
chain: MDAGFFRGTSAEQDNRFSNKQKKLLKQLKFAECLEKKVDMSKVNLEVIKPWITKRVTEILGFEDDVVIEFIFNQLEVKNPDSKMMQINLTGFLNGKNAREFMGELWPLLLSAQENIAGIPSAFLELKKEEIKQRQIEQEKLASMKKQDEDKDKRDKEEKESSREKRERSRSPRRRKSRSPSPRRRSSPVRRERKRSHSRSPRHRTKSRSPSPAPEKKEKTPELPEPSVKVKEPSVQEATSTSDILKVPKPEPIPEPKEPSPEKNSKKEKEKEKTRPRSRSRSKSRSRTRSRSPSHTRPRRRHRSRSRSYSPRRRPSPRRRPSPRRRTPPRRMPPPPRHRRSRSPVRRRRRSSASLSGSSSSSSSSRSRSPPKKPPKRTSSPPRKTRRLSPSASPPRRRHRPSPPATPPPKTRHSPTPQQSNRTRKSRVSVSPGRTSGKVTKHKGTEKRESPSPAPKPRKVELSESEEDKGGKMAAADSVQQRRQYRRQNQQSSSDSGSSSSSEDERPKRSHVKNGEVGRRRRHSPSRSASPSPRKRQKETSPRGRRRRSPSPPPTRRRRSPSPAPPPRRRRTPTPPPRRRTPSPPPRRRSPSPRRYSPPIQRRYSPSPPPKRRTASPPPPPKRRASPSPPPKRRVSHSPPPKQRSSPVTKRRSPSLSSKHRKGSSPSRSTREARSPQPNKRHSPSPRPRAPQTSSSPPPVRRGASSSPQRRQSPSPSTRPIRRVSRTPEPKKIKKAASPSPQSVRRVSSSRSVSGSPEPAAKKPPAPPSPVQSQSPSTNWSPAVPVKKAKSPTPSPSPPRNSDQEGGGKKKKKKKDKKHKKDKKHKKHKKHKKEKAVAAAAAAAVTPAAIAAATTTLAQEEPVAAPEPKKETESEAEDNLDDLEKHLREKALRSMRKAQVSPQS
modifications: phosphorylated
B5: TRA2B (protein, UniProt P62995 1-288)
chain: MSDSGEQNYGERESRSASRSGSAHGSGKSARHTPARSRSKEDSRRSRSKSRSRSESRSRSRRSSRRHYTRSRSRSRSHRRSRSRSYSRDYRRRHSHSHSPMSTRRRHVGNRANPDPNCCLGVFGLSLYTTERDLREVFSKYGPIADVSIVYDQQSRRSRGFAFVYFENVDDAKEAKERANGMELDGRRIRVDFSITKRPHTPTPGIYMGRPTYGSSRRRDYYDRGYDRGYDDRDYYSRSYRGGGGGGGGWRAAQDRDQIYRRRSPSPYYSRGGYRSRSRSRSYSPRRY
modifications: phosphorylated
B6: SCAF11 (protein, UniProt Q99590 1-1463)
chain: MKKKTVCTLNMGDKKYEDMEGEENGDNTISTGLLYSEADRCPICLNCLLEKEVGFPESCNHVFCMTCILKWAETLASCPIDRKPFQAVFKFSALEGYVKVQVKKQLRETKDKKNENSFEKQVSCHENSKSCIRRKAIVREDLLSAKVCDLKWIHRNSLYSETGGKKNAAIKINKPQRSNWSTNQCFRNFFSNMFSSVSHSGESSFTYRAYCTEFIEASEISALIRQKRHELELSWFPDTLPGIGRIGFIPWNVETEVLPLISSVLPRTIFPTSTISFEHFGTSCKGYALAHTQEGEEKKQTSGTSNTRGSRRKPAMTTPTRRSTRNTRAETASQSQRSPISDNSGCDAPGNSNPSLSVPSSAESEKQTRQAPKRKSVRRGRKPPLLKKKLRSSVAAPEKSSSNDSVDEETAESDTSPVLEKEHQPDVDSSNICTVQTHVENQSANCLKSCNEQIEESEKHTANYDTEERVGSSSSESCAQDLPVLVGEEGEVKKLENTGIEANVLCLESEISENILEKGGDPLEKQDQISGLSQSEVKTDVCTVHLPNDFPTCLTSESKVYQPVSCPLSDLSENVESVVNEEKITESSLVEITEHKDFTLKTEELIESPKLESSEGEIIQTVDRQSVKSPEVQLLGHVETEDVEIIATCDTFGNEDFNNIQDSENNLLKNNLLNTKLEKSLEEKNESLTEHPRSTELPKTHIEQIQKHFSEDNNEMIPMECDSFCSDQNESEVEPSVNADLKQMNENSVTHCSENNMPSSDLADEKVETVSQPSESPKDTIDKTKKPRTRRSRFHSPSTTWSPNKDTPQEKKRPQSPSPRRETGKESRKSQSPSPKNESARGRKKSRSQSPKKDIARERRQSQSRSPKRDTTRESRRSESLSPRRETSRENKRSQPRVKDSSPGEKSRSQSRERESDRDGQRRERERRTRKWSRSRSHSRSPSRCRTKSKSSSFGRIDRDSYSPRWKGRWANDGWRCPRGNDRYRKNDPEKQNENTRKEKNDIHLDADDPNSADKHRNDCPNWITEKINSGPDPRTRNPEKLKESHWEENRNENSGNSWNKNFGSGWVSNRGRGRGNRGRGTYRSSFAYKDQNENRWQNRKPLSGNSNSSGSESFKFVEQQSYKRKSEQEFSFDTPADRSGWTSASSWAVRKTLPADVQNYYSRRGRNSSGPQSGWMKQEEETSGQDSSLKDQTNQQVDGSQLPINMMQPQMNVMQQQMNAQHQPMNIFPYPVGVHAPLMNIQRNPFNIHPQLPLHLHTGVPLMQVATPTSVSQGLPPPPPPPPPSQQVNYIASQPDGKQLQGIPSSSHVSNNMSTPVLPAPTAAPGNTGMVQGPSSGNTSSSSHSKASNAAVKLAESKVSVAVEASADSSKTDKKLQIQEKAAQEVKLAIKPFYQNKDITKEEYKEIVRKAVDKVCHSKSGEVNSTKVANLVKAYVDKYKYSRKGSQKKTLEEPVSTEKNIG
B7: phosphorylated SRSF4, Q08170 1-494 (protein)
chain: MPRVYIGRLSYQARERDVERFFKGYGKILEVDLKNGYGFVEFDDLRDADDAVYELNGKDLCGERVIVEHARGPRRDGSYGSGRSGYGYRRSGRDKYGPPTRTEYRLIVENLSSRCSWQDLKDYMRQAGEVTYADAHKGRKNEGVIEFVSYSDMKRALEKLDGTEVNGRKIRLVEDKPGSRRRRSYSRSRSHSRSRSRSRHSRKSRSRSGSSKSSHSKSRSRSRSGSRSRSKSRSRSQSRSRSKKEKSRSPSKEKSRSRSHSAGKSRSKSKDQAEEKIQNNDNVGKPKSRSPSRHKSKSKSRSRSQERRVEEEKRGSVSRGRSQEKSLRQSRSRSRSKGGSRSRSRSRSKSKDKRKGRKRSREESRSRSRSRSKSERSRKRGSKRDSKAGSSKKKKKEDTDRSQSRSPSRSVSKEREHAKSESSQREGRGESENAGTNQETRSRSRSNSKSKPNLPSESRSRSKSASKTRSRSKSRSRSASRSPSRSRSRSHSRS
modifications: here or on the partner: phosphorylated

biological target: T1, SRSF7-GFP fusion product (Serine/arginine-rich splicing factor 7, GFP-tagged at the C-terminus, from a BAC) (human); assay: affinity purification with mass spectrometry; GFP-Trap agarose beads on lysates of BAC-SRSF7-GFP MDA-MB-231 cells treated with 0.1% DMSO or 1 µM T-025 for 24 h; EBC buffer, benzonase, 300 mM NaCl, 2 h at 4 °C; MDA-MB-231-GFP cells as negative control; on-bead trypsin digest, label-free quantification, phospho (STY) as variable modification, four biological replicates; settings: not given

binding, binds:
B1, B2, B3, B4, B5, B6

Biological target: T2, SRSF7-GFP fusion product …
Assay: as above
Settings: remark: other sources report otherwise

binding, binds:
B7
